Measurements reported in PubChem BioAssay AID1508597 (Cure First, 2020)
Assay: 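Survival screen with siRNA in ovarian cancer cells derived from patients, with or without rucaparib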 (primary screen). Cell system: human ovarian carcinoma lines grown from tumours: OCI-P5x (papillary serous) and OCI-C5x (clear cell). Knock-down reagent: siRNA pool against human genes, 1.25 pmol siRNA per well. Time to read-out: 72 h or 96 h, depending on the cell culture. Treatment: rucaparib 20 µM (about IC30) or vehicle, present until read-out. Detection: 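ATP luminescence measured at 72 or 96 h according to the culture, then normalised and expressed as percent viability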. Reading the numbers: viability, normalised: higher = more viable cells remaining. Active means: 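Active when normalised viability falls below 80 percent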. Meaning of the calls: active = viability under 80%; inactive = viability 80% or more.
Here is a random part of about 2,100 reagents. 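Calls flag viability under 80% in either arm, not effects specific to rucaparib; the reference for percent is not stated.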 Not stated in the record: the 100% reference.

MAP3K19, rucaparib or vehicle Rucaparib, cell line OCI-C5x (clear cell), technical replicate 1 scored viability, normalised (%) = 54.6; active.
With MAP3K19, rucaparib or vehicle Rucaparib, cell line OCI-C5x (clear cell), technical replicate 2 the deposit lists viability, normalised (%) = 63.2; active.
MAP3K19, rucaparib or vehicle Rucaparib, cell line OCI-C5x (clear cell), technical replicate 3 showed viability, normalised (%) = 54.7; active.
MAP3K19, rucaparib or vehicle Rucaparib, cell line OCI-P5x (serous), technical replicate 1 gave viability, normalised (%) = 84.9; inactive.
MAP3K19, rucaparib or vehicle Rucaparib, cell line OCI-P5x (serous), technical replicate 2 showed viability, normalised (%) = 87.4; inactive.
For MAP3K19, rucaparib or vehicle Rucaparib, cell line OCI-P5x (serous), technical replicate 3 the deposit lists viability, normalised (%) = 92.6; inactive.
MAP3K19, rucaparib or vehicle Vehicle, cell line OCI-C5x (clear cell), technical replicate 1 scored viability, normalised (%) = 95.8; inactive.
MAP3K19, rucaparib or vehicle Vehicle, cell line OCI-C5x (clear cell), technical replicate 2 showed viability, normalised (%) = 58.3; active.
For MAP3K19, rucaparib or vehicle Vehicle, cell line OCI-C5x (clear cell), technical replicate 3, the entry reads viability, normalised (%) = 55.9; active.
MAP3K19, rucaparib or vehicle Vehicle, cell line OCI-P5x (serous), technical replicate 1 scored viability, normalised (%) = 57.3; active.
For MAP3K19, rucaparib or vehicle Vehicle, cell line OCI-P5x (serous), technical replicate 2, the entry reads viability, normalised (%) = 92.5; inactive.
MAP3K19, rucaparib or vehicle Vehicle, cell line OCI-P5x (serous), technical replicate 3 scored viability, normalised (%) = 93.4; inactive.
